This is a selection; strong and weak results do not stand in their true shares. Potency and affinity values are given separately.

This assay deals with Escherichia coli. The settings on record: Concentration 20 uM; ASSAY_TEST Inhibition of Bacterial Growth; detection method Absorption (OD600); MEDIA CAMHB; plate type 384well; NBS; CORNING #3640; time 18 hr.

Molecule `C[N+]1(C)CCC(OC(=O)C(O)(c2ccccc2)C2CCCC2)C1.[Br-]` (stereo unspecified) [GLYCOPYRRONIUM BROMIDE] gave an Inhibition of 3.03%.

The record behind these values is ChEMBL document CHEMBL4513141, “CO-ADD screening of NIH (USA) - Clinical Collection” (2021).
